Results on 3 substances are retold here after PMC7414866, “The Rnf complex is a Na^+ coupled respiratory enzyme in a fermenting bacterium, Thermotoga maritima” (Communications Biology, 2020).

Sequences of proteins named here, by UniProt entry; tags and fusion partners are left off. A change or cut given only in a name is not applied to a line headed by its entry.
UniProt Q9WY90: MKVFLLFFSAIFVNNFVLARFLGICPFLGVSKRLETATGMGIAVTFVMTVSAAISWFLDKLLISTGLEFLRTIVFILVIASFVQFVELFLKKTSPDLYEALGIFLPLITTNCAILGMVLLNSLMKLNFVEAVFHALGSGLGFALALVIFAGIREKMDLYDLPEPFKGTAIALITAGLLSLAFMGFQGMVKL
UniProt Q9WY89: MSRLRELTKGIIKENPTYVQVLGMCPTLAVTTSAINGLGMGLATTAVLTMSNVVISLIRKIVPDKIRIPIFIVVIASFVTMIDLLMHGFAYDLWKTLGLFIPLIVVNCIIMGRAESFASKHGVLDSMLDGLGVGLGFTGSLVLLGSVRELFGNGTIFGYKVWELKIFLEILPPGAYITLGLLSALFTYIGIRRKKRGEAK

No constants are given. Whether binding was seen depends on the method and setting. Binding seen in cells or lysates may run through a third protein. Binding can be weak; no strength is given.

In the experiment the target is T1, RnfC of Thermotoga maritima (Thermotoga maritima (endogenous in T. maritima DSM3109)) (UniProt Q9WY86).
T1 sequence: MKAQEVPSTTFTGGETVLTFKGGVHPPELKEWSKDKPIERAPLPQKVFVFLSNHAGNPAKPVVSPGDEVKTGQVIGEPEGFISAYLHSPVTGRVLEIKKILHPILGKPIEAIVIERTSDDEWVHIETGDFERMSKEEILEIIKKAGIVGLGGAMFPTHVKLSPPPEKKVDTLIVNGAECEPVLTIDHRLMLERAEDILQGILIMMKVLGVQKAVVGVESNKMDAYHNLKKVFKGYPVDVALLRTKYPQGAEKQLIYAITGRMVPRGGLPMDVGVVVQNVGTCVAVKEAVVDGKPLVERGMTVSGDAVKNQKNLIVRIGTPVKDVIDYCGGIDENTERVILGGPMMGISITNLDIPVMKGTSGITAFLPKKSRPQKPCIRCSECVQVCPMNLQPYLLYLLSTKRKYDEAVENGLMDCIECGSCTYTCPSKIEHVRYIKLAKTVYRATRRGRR
As to the kind of experiment: co-purification (PEG precipitation, sucrose gradient, anion exchange, hydroxyapatite, gel filtration); DDM solubilisate, PEG6000 7% then 12%, sucrose gradient 20-50%, Q-sepharose, hydroxyapatite, Sephacryl S300; subunits confirmed by MALDI-TOF and SDS-PAGE; no ATPase activity in the preparation.
Take “RnfA of Thermotoga maritima (from UniProt Q9WY90)”: the binding entry is recorded as “binds”.

Consider RnfB of Thermotoga maritima, for which the binding result is given as “binds”.

In the case of “RnfE of Thermotoga maritima (from UniProt Q9WY89)”, the binding result is “binds”.
